Assay results published in PubChem BioAssay AID485314 (National Center for Advancing Translational Sciences (NCATS), 2010).
The whole screen tested about 340,000 compounds, of which about 4,500 (1.3%) were called active. Inconclusive results, whose numbers are uncertain, are shown with a selection of clear calls. Calls follow the shape of the dose curve; as a rule, active = well fitted inhibition curve with a large enough effect; inconclusive = small, poorly fitted or top-dose-only effect, or another doubt; inactive = no such curve, though single readings can be large or run the other way. A potency beside an inconclusive call is a rough fit, not a confirmed value.

These compounds were tested against DNA polymerase beta (Homo sapiens) (UniProt P06746) (assay: qHTS Assay for Inhibitors of DNA Polymerase Beta). Settings: Pol beta primer extension/strand displacement, fluorescence kinetic; activity change, negative = inhibition: at 114 µM (top of the series).
Summary of the method: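 10 nM enzyme + cpd, 15 min RT; start with substrate 50 nM final; read 0 min and after 10 min RT. Corrected, normalized data; 4-parameter Hill curve fit.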
% is scaled to controls: 0 for no effect and ±100 for the full control effect; potency is read from the fitted curve at half-maximal effect.

| Structure (SMILES) | Potency | activity change, negative = inhibition |
| --- | --- | --- |
| C#CCOC(=O)CCCNc1ccc([N+](=O)[O-])cc1[N+](=O)[O-] | inconclusive: 8.91 µM [inhibitor, full curve] |  |
| CCOc1ccc(-c2cc(NC(=O)c3ccccc3)c(C(=O)OC)s2)cc1 |  | inactive: 24.5% |
| COc1ccc(F)cc1CN1CCN(c2cc(C)nc3c4c(C)cc(C)nc4nn23)CC1 |  | inactive: 2.93% |
| Cc1ccc(NC(=O)Cn2c(=O)n(-c3ccc(C)cc3)c(=O)c3c2cnn3C)cc1 |  | inactive: 4.26% |
| COc1ccc(C(=O)COc2ccc3c(C)cc(=O)oc3c2)cc1 | inconclusive: 50.1 µM [inhibitor, partial curve, poor fit] |  |
| O=C(Nc1ccnc(-c2cccnc2)n1)c1ccccc1Cl | inconclusive: 0.631 µM [inhibitor, full curve, poor fit] |  |
| Cn1ccsc1=NC(=O)c1ccc([N+](=O)[O-])o1 |  | inactive: 7.53% |
| O=C(O)c1cccc(NC(=O)c2cn(-c3ccccc3)nc2-c2ccc([N+](=O)[O-])cc2)c1 | inconclusive: 7.94 µM [inhibitor, full curve, poor fit] |  |
| O=C(O)c1cnn2c1C(=O)N(Cc1cccs1)CC2 | active: 20 µM |  |
| COC(=O)CSc1nc2nc(-c3cccs3)cc(C(F)(F)F)c2c(=O)[nH]1 |  | inactive: 7.83% |
| O=[N+]([O-])c1ccc(O)c(Nc2ncnc3ccccc23)c1 | active: 28.2 µM |  |
| CCOc1ccc(C2C(C(=O)Nc3ccccc3)=C(C)Nc3nc(-c4ccccc4Cl)nn32)cc1OC (stereo not given) |  | inactive: 28.5% |
| COc1ccc(CNC(=O)Cn2c(=O)oc3cc(S(=O)(=O)NCc4ccccc4)ccc32)cc1 | inconclusive: 0.282 µM [inhibitor, full curve] |  |
| COc1ccc2nc(C)cc(C(=O)O)c2c1 | inconclusive: 89.1 µM [inhibitor, single point] |  |
| CC(=O)Nc1ccc(CN2CCc3c([nH]c4ccccc34)C2C(C)(C)C)cc1 (stereo not given) | inconclusive: 0.447 µM [inhibitor, full curve, poor fit] |  |
| CCOc1ccc(S(=O)(=O)Nc2cc(F)ccc2F)c2cccnc12 | inconclusive: 7.08 µM [inhibitor, full curve] |  |
| Cc1ccc(C)c(S(=O)(=O)c2nnn3c2nc(NC2CCCCC2)c2sccc23)c1 | inconclusive: 56.2 µM [inhibitor, partial curve] |  |
| COc1ccccc1NC(=O)c1nc[nH]c1C(=O)Nc1ccccc1OC |  | inactive: 0.021% |
| Cc1ccc(S(=O)(=O)Cc2ccc(C(=O)N3CCN(c4cccc(Cl)c4)CC3)o2)cc1 | inconclusive: 17.8 µM [inhibitor, full curve] |  |
| COc1cc(OC)c(C#N)c(S(=O)(=O)Cc2ccccc2)c1 |  | inactive: 6.98% |
| Cc1nc(N2CCN(c3ccccc3)CC2)[nH]c(=O)c1C | inconclusive: 20 µM [inhibitor, full curve, poor fit] |  |
| COc1ccccc1N(CC(=O)NCc1ccco1)S(=O)(=O)c1ccc(C)cc1 | active: 11.2 µM |  |
| COc1cc(C2N(Cc3ccccc3)CCN2Cc2ccccc2)ccc1OC(C)=O | inconclusive: 22.4 µM [inhibitor, partial curve] |  |

An excerpt of these results, in CSV form:
Structure (SMILES),Potency,"activity change, negative = inhibition"
Cn1ccsc1=NC(=O)c1ccc([N+](=O)[O-])o1,,inactive: 7.53%
O=C(O)c1cccc(NC(=O)c2cn(-c3ccccc3)nc2-c2ccc([N+](=O)[O-])cc2)c1,"inconclusive: 7.94 µM [inhibitor, full curve, poor fit]",
O=C(O)c1cnn2c1C(=O)N(Cc1cccs1)CC2,active: 20 µM,

Following part

| Structure (SMILES) | Potency | activity change, negative = inhibition |
| --- | --- | --- |
| O=c1cc(O)c2sc(Nc3ccc(Cl)c(F)c3)nc2[nH]1 |  | inactive: -26.3% |
| CCOC(=O)c1cc2occc2n1Cc1ccc(F)cc1 | inconclusive: 39.8 µM [inhibitor, partial curve] |  |
| CC1CCN(S(=O)(=O)c2ccc3c(ccn3CCC(=O)NCc3ccccc3F)c2)CC1 |  | inactive: 8.23% |
| CCOc1ccc(NC(=O)c2ccc3c(c2)CCN3S(=O)(=O)CC)cc1 | inconclusive: 89.1 µM [inhibitor, single point] |  |
| Cc1cc(C)c2c(c1)c(C)cc1nnc(SCC(=O)NCc3ccco3)n12 | inconclusive: 22.4 µM [inhibitor, full curve] |  |
| CCC(=O)NCc1ccc(-c2nc3ncccc3o2)cc1 | inconclusive: 8.91 µM [inhibitor, full curve, poor fit] |  |
| COc1cccc(-c2nnc(NC(=O)Cc3cccs3)s2)c1 | active: 20 µM |  |
| Cc1ccc(C)c(N2CCN(C(=O)c3cc4c(=O)n(Cc5ccccc5)ccc4nc3C)CC2)c1 |  | inactive: 25.8% |
| CCOc1cccc2c1N[C@@H](c1ccc(C(=O)O)cc1)[C@H]1CC=C[C@@H]21 | inconclusive: 14.1 µM [inhibitor, single point] |  |
| Cc1cc(=O)[nH]c(N/N=C/c2c(C)oc3ccccc23)n1 | inconclusive: 89.1 µM [inhibitor, single point] |  |
| O=C(Nc1cccc(C(=O)N2CCN(c3cccc(Cl)c3)CC2)c1)c1ccccc1 | inconclusive: 89.1 µM [inhibitor, single point] |  |
| O=C1CCN(C(=S)NCc2ccccc2)CC1 | inconclusive: 44.7 µM [inhibitor, partial curve, poor fit] |  |
| COc1cccc(CSc2nc3ccccc3cc2C=O)c1 | inconclusive: 3.55 µM [inhibitor, full curve, poor fit] |  |
| CCOCCCNCc1ccc(OC)cc1 |  | inactive: 1.15% |
| CCN(CC)C(=O)CC(c1ccc2c(c1)OCO2)c1c(OC)cc(OC)c2ccc(=O)oc12 (stereo not given) | active: 50.1 µM |  |
| Cc1ccc(N=Cc2ccc[nH]2)c(O)c1 | inconclusive: 0.501 µM [inhibitor, full curve, poor fit] |  |
| COc1ccc(/C=N\NC(=O)c2cc(O)c(O)c(O)c2)cc1COc1ccc(C(=O)OCC(C)C)cc1 | active: 1.41 µM |  |
| COc1cc(C(=O)N=C2SC3CS(=O)(=O)CC3N2c2ccccc2)cc(OC)c1OC (stereo not given) |  | inactive: 11.6% |
| C#CCOCCOCCOCCNc1nc(N2CCN(C(=O)[C@H](CCCCN)n3cc(C(N)CO)nn3)CC2)nc(N2CCN(C(=O)[C@H](CCC(=O)O)n3cc(C(N)Cc4ccc(O)cc4)nn3)CC2)n1 (stereo not given in full) | inconclusive: 70.8 µM [inhibitor, single point] |  |
| O=[N+]([O-])c1c(NCc2ccco2)ccc2nonc12 | active: 3.16 µM |  |
| CC(C)C(NC(=O)c1ccc(C(C)(C)C)cc1)C(=O)O (stereo not given) | inconclusive: 5.62 µM [inhibitor, full curve] |  |
| Cc1nonc1OCCNC(=O)C12CC3CC(CC(C3)C1)C2 | inconclusive: 79.4 µM [inhibitor, partial curve] |  |
